Source: ChEMBL document CHEMBL1132135, “Potent, orally absorbed glucagon receptor antagonists” (Bioorg Med Chem Lett, 1999)

Sequences of proteins named here, by UniProt entry; tags and fusion partners are left off.
UniProt P47871, whole entry: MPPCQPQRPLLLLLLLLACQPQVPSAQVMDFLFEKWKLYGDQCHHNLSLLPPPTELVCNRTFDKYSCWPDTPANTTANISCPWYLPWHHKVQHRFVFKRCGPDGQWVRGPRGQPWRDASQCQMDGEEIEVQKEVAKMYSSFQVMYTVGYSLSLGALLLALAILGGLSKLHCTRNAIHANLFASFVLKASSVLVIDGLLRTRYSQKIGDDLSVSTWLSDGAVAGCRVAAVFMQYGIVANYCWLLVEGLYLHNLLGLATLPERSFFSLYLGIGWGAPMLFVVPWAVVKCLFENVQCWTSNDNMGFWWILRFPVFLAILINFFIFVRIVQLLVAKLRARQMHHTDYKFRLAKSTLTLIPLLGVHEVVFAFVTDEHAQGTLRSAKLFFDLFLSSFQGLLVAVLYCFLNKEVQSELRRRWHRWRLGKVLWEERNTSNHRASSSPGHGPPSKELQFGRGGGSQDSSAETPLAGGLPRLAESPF

Target: Glucagon receptor (Homo sapiens, UniProt P47871)
Experiment: biochemical
Format: cell-based, CHO

- IC50: 490 nM
Compound: CSc1ccc(-c2nc(-c3ccc(F)cc3)c(-c3ccncc3)[nH]2)cc1
